Experimental findings from paper PMC12727980 are described below.

For at least one entry, the source does not settle the construct or the ends of the probe. No signal at the amounts used counts as a negative.

The data set addresses T1, GST-KH (Bicc1 KH domains) (UniProt Q99MQ1).
T1 sequence (Q99MQ1 whole entry, looked up): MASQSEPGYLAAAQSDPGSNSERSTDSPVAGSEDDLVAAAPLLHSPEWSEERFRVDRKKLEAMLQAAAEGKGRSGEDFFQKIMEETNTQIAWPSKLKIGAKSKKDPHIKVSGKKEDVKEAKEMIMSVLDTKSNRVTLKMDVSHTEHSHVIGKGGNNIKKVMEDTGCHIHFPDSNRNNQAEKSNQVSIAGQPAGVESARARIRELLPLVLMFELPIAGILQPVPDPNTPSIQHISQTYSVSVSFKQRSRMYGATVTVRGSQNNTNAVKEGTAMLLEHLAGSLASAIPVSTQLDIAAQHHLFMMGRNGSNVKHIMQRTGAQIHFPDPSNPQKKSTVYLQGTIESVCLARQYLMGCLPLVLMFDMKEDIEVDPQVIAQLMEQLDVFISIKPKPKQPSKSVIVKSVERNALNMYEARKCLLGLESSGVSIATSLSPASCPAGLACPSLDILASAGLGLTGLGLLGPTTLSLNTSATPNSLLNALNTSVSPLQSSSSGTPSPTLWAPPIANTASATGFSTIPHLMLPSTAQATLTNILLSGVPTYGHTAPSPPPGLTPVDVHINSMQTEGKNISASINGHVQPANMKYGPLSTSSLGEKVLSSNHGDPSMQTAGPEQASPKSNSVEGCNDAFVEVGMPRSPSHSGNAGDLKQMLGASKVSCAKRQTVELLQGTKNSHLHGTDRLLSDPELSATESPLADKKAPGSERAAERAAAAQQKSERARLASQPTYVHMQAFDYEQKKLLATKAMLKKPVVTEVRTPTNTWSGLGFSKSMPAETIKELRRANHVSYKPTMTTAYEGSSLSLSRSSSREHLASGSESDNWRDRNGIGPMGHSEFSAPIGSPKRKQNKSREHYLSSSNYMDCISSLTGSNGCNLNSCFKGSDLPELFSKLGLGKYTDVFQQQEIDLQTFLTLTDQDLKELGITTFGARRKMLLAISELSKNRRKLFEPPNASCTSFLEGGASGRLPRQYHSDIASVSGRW
In words: EMSA. Conditions: probe alone, no RNA, EMSA buffer 1X: 10 mM Tris-HCl pH 8.0, 100 mM KCl, 2.5 mM MgCl2, 2.5% glycerol (slightly below 1X in some mixes), about 1 mM DTT, 0.05 ug/uL yeast tRNA, 50 nM tagged RNA, recombinant protein, protein details: GST, single-stranded DNA. In general terms: A gel shift assay detects complexes by their altered migration in electrophoresis.

For CGCACCATCTCGGTACGTG [Probe #2], under “label: 5'-Dyomics 781”, the binding result is “no binding”. Regarding CTGAGCCTGTTGCCCAGAC [Probe #1], the binding result (label: 5'-Dyomics 681) is reported as “no binding”.
